{"source": "PubChem BioAssay AID1259405 (NCATS, 2018)", "aim": "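Knock-downs that lift recombinant protein yield in hamster ovary cells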 (primary screen)", "system": "Chinese hamster CHO-K1 ovary cells with stable secreted eGFP expression", "knock-down reagent": "single siRNA against mouse genes, 0.8 pmol siRNA per well (2 µl of 400 nM stock)", "duration": "3 days", "measured": "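Percent of the per-plate non-targeting control median for intracellular GFP per well by laser scanning cytometry and for cell viability by ATP luminescence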", "reading the numbers": "GFP, % of control: higher = more GFP per well, higher productivity; viability (ATP), % of control: higher = more viable cells (more ATP)", "active means": "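a knock-down is called active if GFP reaches 120% or more of non-targeting control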", "note": "The whole screen tested about 50,000 reagents; shown is a part drawn at random. About 4,000 of all reagents (8%) were called active. 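Mouse siRNA library applied to hamster cells; one well for each siRNA.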 The numbers tell different reagents against one gene apart. Reagent sequences are not shown."}
{"Target gene":"Lrrc8d","siRNA no.":1,"GFP, % of control":64.1,"viability (ATP), % of control":78.7,"activity call":"inactive"}
{"Target gene":"Lrrc8d","siRNA no.":2,"GFP, % of control":71,"viability (ATP), % of control":53.7,"activity call":"inactive"}
{"Target gene":"Lrrc8d","siRNA no.":3,"GFP, % of control":76,"viability (ATP), % of control":67.7,"activity call":"inactive"}
{"Target gene":"Cyp26a1","siRNA no.":1,"GFP, % of control":49.6,"viability (ATP), % of control":59.6,"activity call":"inactive"}
{"Target gene":"Cyp26a1","siRNA no.":2,"GFP, % of control":76.4,"viability (ATP), % of control":73.9,"activity call":"inactive"}
{"Target gene":"Cyp26a1","siRNA no.":3,"GFP, % of control":127,"viability (ATP), % of control":69.1,"activity call":"active"}
{"Target gene":"Adam24","siRNA no.":1,"GFP, % of control":140,"viability (ATP), % of control":112,"activity call":"active"}
{"Target gene":"Adam24","siRNA no.":2,"GFP, % of control":77,"viability (ATP), % of control":47.8,"activity call":"inactive"}
{"Target gene":"Adam24","siRNA no.":3,"GFP, % of control":73.1,"viability (ATP), % of control":59.8,"activity call":"inactive"}
{"Target gene":"Arap3","siRNA no.":1,"GFP, % of control":126,"viability (ATP), % of control":148,"activity call":"active"}
{"Target gene":"Arap3","siRNA no.":2,"GFP, % of control":145,"viability (ATP), % of control":103,"activity call":"active"}
{"Target gene":"Arap3","siRNA no.":3,"GFP, % of control":55.4,"viability (ATP), % of control":69.8,"activity call":"inactive"}
{"Target gene":"Sdsl","siRNA no.":1,"GFP, % of control":92,"viability (ATP), % of control":92.6,"activity call":"inactive"}
{"Target gene":"Sdsl","siRNA no.":2,"GFP, % of control":98.2,"viability (ATP), % of control":87.3,"activity call":"inactive"}
{"Target gene":"Caln1","siRNA no.":1,"GFP, % of control":61.1,"viability (ATP), % of control":70.7,"activity call":"inactive"}
{"Target gene":"Caln1","siRNA no.":2,"GFP, % of control":58,"viability (ATP), % of control":46,"activity call":"inactive"}
{"Target gene":"Caln1","siRNA no.":3,"GFP, % of control":84,"viability (ATP), % of control":60.1,"activity call":"inactive"}

2 of these entries in another layout.
Sdsl #1
- GFP, % of control: 92
- viability (ATP), % of control: 92.6
- activity call: inactive

Sdsl #2
- GFP, % of control: 98.2
- viability (ATP), % of control: 87.3
- activity call: inactive
